The structures appear in SMILES notation.

The test system of series [1] is uni-nephrectomized fawn-hooded hypertensive (FHH) rats. Description: Model of FSGS, early disease protocol (blood pressure, proteinuria, histology, weights, urine). In kind it is in vivo, rat. Particulars: after 8 weeks, n=4/group. The procedure:
(§1) Male FHH rats (In-house colony established from animals obtained from Charles River Laboratories, Wilmington, MA) were housed at a certified animal facility at 22°C and a 12∶12 h light/dark cycle. […] All surgeries were performed under isoflurane anesthesia (5% induction, 2% maintenance), at 37°C, and perioperative buprenorphine.
(§2) Following anesthesia, an incision was made in the left flank; the kidney was exposed and excised after ligation of the pedicle. […] Under anesthesia, a mini-pump was placed in a subcutaneous pocket. […] Pumps were replaced once during the treatment period. For the early disease model, five groups of rats were examined. […] For the late disease model, eight groups of rats were examined. […] The dosages of the Ang peptides were selected based on previous studies where Ang-(1-7) was similarly administered using implanted osmotic mini-pumps, [16], [17], [26]. […] Systemic blood pressure was measured by tail-cuff sphygmomanometer (Natume, Japan). Animals were placed on metabolic cages for urine collection at pre-specified time points. Urinary protein excretion was measured by the method of Lowry. Urinary sodium concentration was measured by ion-selective electrodes. At sacrifice, kidneys were harvested for histological analysis and measurement of Ang peptide concentration.
(§3) Upon harvesting, kidneys were cleared of blood by transcardiac perfusion of iced-cold phosphate buffered saline, excised and fixed in 4% paraformaldehyde, embedded in paraffin and processed for microscopic examination. Kidney sections (2-µm) were stained with hematoxylin-eosin (H&E), Jones silver and Periodic Acid Schiff (PAS). Slides were reviewed by an experienced renal pathologist (S.S) in a blinded fashion. Index of glomerulosclerosis was evaluated by a semiquantitative score based on the percentage of the glomerular tuft occupied by sclerotic lesions (0: no lesions, 1: lesions affecting less than 25% of the glomerulus, 2-3-4: lesions affecting 25–50%, 50–75% and 75–100% of the glomerulus, respectively). Tubular injury was rated based on presence of tubular atrophy, microcystic tubular dilation and interstitial fibrosis, from 0 to 3 (0: none; 1: mild; 2: moderate; 3: severe).
Blood pressure data were analyzed by repeated measures ANOVA. Differences within groups were analyzed using paired t-tests adjusted with Bonferroni modification. Differences between group means at each time point were tested using one-way ANOVA followed by Tukey-Kramer post-hoc test. […] If a significant main effect was detected then differences between groups were tested using the Mann-Whitney U test with the probability adjusted using the Bonferroni modification. Urine sodium was also assessed by two-way ANOVA for repeated measures and pairwise multiple comparisons were made using the Holm-Sidak method. […]

The test system is the same in series [2]. Particulars: late disease model, after 12 weeks, low-dose Ang peptides 100 ng/kg/min iv, captopril 100 mg/kg/d or losartan 20 mg/kg/d orally, n=9/group; for Body Wt, Final (week 30) / Kid. Wt/B. Wt, Final (week 30) / Kidney Wt, Final (week 30): mean (SD), SD. Here is the method:
as §1, §2, §3
Blood pressure data were analyzed by repeated measures ANOVA. Differences within groups were analyzed using paired t-tests adjusted with Bonferroni modification. Differences between group means at each time point were tested using one-way ANOVA followed by Tukey-Kramer post-hoc test. Urinary protein excretions were log10 transformed and tested using a two-way ANOVA for repeated measures followed by Scheffe post hoc test for differences between the groups. Untransformed 24-hour urinary protein excretions at each time point were then tested using Kruskal-Wallis test. If a significant main effect was detected then differences between groups were tested using the Mann-Whitney U test with the probability adjusted using the Bonferroni modification. Urine sodium was also assessed by two-way ANOVA for repeated measures and pairwise multiple comparisons were made using the Holm-Sidak method. Multiple comparisons of Ang peptide levels were made using ANOVA when data were normally distributed and with log10 transformation when non-normally distributed. Post-hoc pairwise comparisons were made using the Holm-Sidak method. […] For Ang peptide measurements by LC/MS/MS, only values above the LLOQ were utilized for statistical comparisons.

The mark [3] stands for this setting: Ang peptides 100 ng/kg/min iv mini-pump, captopril 100 mg/kg/d in drinking water, captopril n=5, mean (SD), SD.

Turning to `C[C@H](CS)C(=O)N1CCC[C@H]1C(=O)O` [Captopril, captopril], in series [1] (setting [3]), the “Body Wt, Final (week 15)” value was 284 (10) g; the “Kid. Wt/B. Wt, Final (week 15)” value is 0.5 (0.0) g/100 g b.wt; the “Kidney Wt, Final (week 15)” value is listed as 1.6 (0.1) g. The “Urine sodium, Final (week 15)” value in series [1] (Ang peptides 100 ng/kg/min iv, captopril 100 mg/kg/d, ion-selective electrodes, captopril n=5) is reported as 36.3 (13) mg/day. Besides, in series [2], the “Urine sodium, Final (week 30)” value is 36.1 (12) mg/day; the “Body Wt, Final (week 30)” value was 354 (16) g; the “Kid. Wt/B. Wt, Final (week 30)” value is 0.5 (0.1) g/100 g b.wt; the “Kidney Wt, Final (week 30)” value was 1.9 (0.1) g.

Regarding `CCCCc1nc(Cl)c(CO)n1Cc1ccc(-c2ccccc2-c2nn[nH]n2)cc1` [Losartan, losartan], in series [2], the “Urine sodium, Final (week 30)” value is recorded as 36.5 (13) mg/day; the “Body Wt, Final (week 30)” value is on record as 351 (22) g; the “Kid. Wt/B. Wt, Final (week 30)” value is reported as 0.6 (0.1) g/100 g b.wt; the “Kidney Wt, Final (week 30)” value is reported as 2.1 (0.1) g.

Source of the values: paper PMC4206519, “Lack of Renoprotective Effect of Chronic Intravenous Angiotensin-(1-7) or Angiotensin-(2-10) in a Rat Model of Focal Segmental Glomerulosclerosis” (PLoS ONE, 2014).
